Laboratory results: PubChem BioAssay AID2733 (National Center for Advancing Translational Sciences (NCATS), 2010)
Inconclusive means that the source gave no clear call. Such entries were picked first, then a sample of the others. Where the call is inconclusive, the potency comes from a doubtful curve fit. Active and inactive are the calls of the source. Calls follow the shape of the dose curve; as a rule, active = well fitted inhibition curve with a large enough effect; inconclusive = small, poorly fitted or top-dose-only effect; inactive = flat fitted curve, though single readings scatter.

Test: High Content Assay for Compounds that inhibit the Assembly of the Perinucleolar Compartment: PC3M Cytotoxicity
Conditions: PC3M cells, ATPLite luminescence viability, 24 h; series mostly up to 46.1 µM
From the text: High Content Assay for Compounds that inhibit the Assembly of the Perinucleolar Compartment
NIH Chemical Genomics Center [NCGC]
NIH Molecular Libraries Probe Centers Network [MLPCN]
Assay Submitter (PI): Sui Huang, Northwestern University, Feinberg School of Medicine, Cell and Molecular Biology, Chicago, Illinois.
The perinucleolar compartment (PNC) is a non-membrane-bound nuclear subdomain that is associated with but structurally distinct from the nucleolus. The PNC is a heritable trait, in which the number of PNCs per cell in daughter cells often mimics that of their mother cells. The PNC is heterogeneous in shape, is stable through interphase, disassembles during mitosis, and reassembles in early G1. The PNC is concentrated with newly synthesized RNA polymerase III (pol III) RNAs (MRP RNA, RNAse P H1 RNA, hY RNAs[hY1, 2, 5], Alu RNA, and SRP [7SL] RNA) and RNA binding proteins (nucleolin, PTB, CUG-BP, KSRP, Raver1, Raver2, and Rod).
Extensive in vitro studies have shown that the PNC is unique to tumor cells and preferentially forms in tumor cells derived from solid tissues. Examination of cancer cell lines from various origins and malignant capacities has shown that PNC prevalence correlates with the malignancy of tumors and has the potential to be developed as a pan-cancer prognostic marker.
Although the PNC is associated with a DNA locus and a handful of components have been identified, much remains to be investigated regarding the structure and function of the PNC and its mechanistic link to cancer. We have previously shown that PNC prevalence reduction is a valid strategy to identify compounds that can be used to study the structure and function of the PNC. It is necessary, however, to create a screening platform that is able to test a large number of compounds in an automated fashion. Here we report the development and robustness of an automated whole-cell phenotypic image-based screening assay that is capable of identifying such compounds.
We conducted a followup assay to measure the effect of the lead candidates on cell health by measuring ATP levels (ATPLite). The highly metastatic PC3M-GFP reporter cell line was used in this study.
1. Cells at a density of 75-90% confluency in T175 flasks were harvested using 7 ml TrypLE Express cell dissociation reagent. After dissociation (5 minutes room temperature incubation) 10 ml of complete media was added to the TrypLE/cell suspension. The liquid was transferred to a 50 ml Conical tube and cells were pelleted at 1000 RPM for 5 min. Supernatant was removed and cells were resuspended to a final density of 150-200 cells/ul in complete media.
2. Cells were plated in 5 ul volume (2000 cells/well) into 1536 well White solid bottom plates and allowed to recover and adhere at 37 C in a humidified 5% CO2 incubator for 4 hours.
3. After 4 hour incubation, compound libraries (23 nl of 12.5 uM in columns 5-48) were transferred to the plates in duplicate using a 1536 well pintool. Camptothecin positive control (59 uM final) was added to column 2 and 1:3 dilutions of camptothecin was added to column 3. DMSO negative controls were present in columns 1 and 4.
4. After a 24 hour incubation in the 37 C incubator, all wells were treated with 3 ul of ATPLite reagent using a multidrop combi dispenser (ThermoFisher). Bubbles that formed during dispensing were removed by spinning the plates for 1 minutre at 1500 RPM on a table top centrifuge.
5. Luminescencent signal was detected on a Viewlux CCD based imager (PerkinElmer) with a clear filter and a 30 second integration time.
The PC3M cell line stably expressing the PTB-GFP was provided by Sui Huang of Northwestern University. The media and cell culture reagents were purchased from Invitrogen (Carlsbad, CA), ATPLite came from PerkinElmer.

Row | Compound | Potency
1 | CC(/C=C/c1ccccc1)=N/NC(=O)c1cc([N+](=O)[O-])cc([N+](=O)[O-])c1 | inconclusive: 28.2 µM [inhibitor, partial curve, poor fit]
2 | COc1ccc(/C=C/C(=O)OCC(=O)Nc2ccc(Cl)c(S(=O)(=O)N(C)C)c2)cc1OC | inconclusive: 0.794 µM [inhibitor, full curve, poor fit]
3 | Cc1c(C#N)c(N)nc2c3c(sc12)NC(=O)CC3c1ccc(F)cc1 (stereo not given) | inactive
4 | O=c1[nH]cnc2c1C(c1ccccc1[N+](=O)[O-])c1c(nc[nH]c1=O)O2 | inactive
5 | COc1cccc(/C=N/NC(=O)c2cc3c(OC)c(OC)ccc3[nH]2)c1OC | inconclusive: 14.1 µM [inhibitor, single point]
6 | O=C(N/N=C/c1c(O)ccc2ccccc12)c1cccc(C(F)(F)F)c1 | active: 8.91 µM
7 | COCCn1c(SC(C)C(=O)Nc2ncc(Cl)cc2Cl)nc2ccccc21 (stereo not given) | inconclusive: 10 µM [inhibitor, partial curve]
8 | O=C1C(Nc2ccccc2)=C/C(=N/S(=O)(=O)c2cccs2)c2ccccc21 | active: 15.8 µM
9 | O=C(NC(Cc1c[nH]c2ccccc12)C(=O)Nc1ccc(OC(F)(F)F)cc1)c1cccs1 (stereo not given) | inconclusive: 7.94 µM [inhibitor, full curve]
10 | O=C1C2CCCN2C(c2ccc(F)cc2)N1c1ccc(Cl)cc1 (stereo not given) | inconclusive: 22.4 µM [inhibitor, partial curve]
11 | C#CCn1c(S(=O)(=O)Cc2ccc(C)cc2)nc(-c2ccccc2)c1-c1ccccc1 | inconclusive: 7.94 µM [inhibitor, full curve]
12 | CN(C)C(=O)COC(=O)c1ccccc1Nc1ccc(SC(F)F)cc1 | inconclusive: 25.1 µM [inhibitor, partial curve]
13 | Nc1cccc2nc3ccccc3cc12 | inconclusive: 22.4 µM [inhibitor, partial curve, poor fit]
14 | COc1ccc(-c2nc(NC(=O)c3n[nH]c(=O)c4ccccc34)sc2C)cc1 | active: 7.08 µM
15 | Nc1ccc2c(c1)C(=O)C(=O)c1ccccc1-2 | active: 22.4 µM
16 | CCCNC1=C(N(C(C)=O)c2cccc(F)c2)C(=O)c2ccccc2C1=O | active: 11.2 µM
17 | COc1ccc2nc3sc(C(=O)NCCCN4CCc5ccccc5C4)cc3cc2c1 | active: 31.6 µM
18 | COc1cc(/C=N/NC(=O)c2ccc(CSc3nc4ccccc4[nH]3)cc2)cc(OC)c1OC | inactive
19 | CNS(=O)(=O)c1cccc(C(=O)Nc2cccc(Cl)c2)c1 | inconclusive: 31.6 µM [inhibitor, partial curve, poor fit]
20 | COc1ccc(-n2c(SC(C)C(=O)Nc3ncc(Cl)cc3Cl)nc3ccccc32)cc1 (stereo not given) | inconclusive: 3.16 µM [inhibitor, full curve]

Row | Compound | Potency
21 | CC(=O)Nc1ccc(S(=O)(=O)Oc2ccc3c(c2)C(C)=CC(C)(C)N3)cc1 | inconclusive: 5.01 µM [inhibitor, full curve]
22 | CC(C)CNC(=O)CSc1nnc(-c2cccc(S(=O)(=O)N3CCCCC3)c2)o1 | inconclusive: 35.5 µM [inhibitor, partial curve, poor fit]
23 | O=C(Cc1cccs1)Nc1nc2c(s1)CCCC2 | inconclusive: 10 µM [inhibitor, full curve]
24 | CSc1nc(-c2ccc(C)cc2)nc(C(Cl)Cl)n1 | active: 31.6 µM
25 | COC(=O)c1c(-c2ccccc2)csc1NC(=O)c1c(-c2ccccc2)noc1C | inconclusive: 4.47 µM [inhibitor, full curve, poor fit]
26 | COc1ccc(CN2CCC(C(=O)NCCc3ccc(OC)c(OC)c3)CC2)c(OC)c1 | inactive
27 | Cc1c(NC(=O)COC(=O)c2cc(-c3ccc(-c4ccccc4)cc3)nc3ccccc23)c(=O)n(-c2ccccc2)n1C | active: 5.01 µM
28 | O=c1c2ccccc2nnn1CSc1ccc2ccccc2n1 | inconclusive: 35.5 µM [inhibitor, single point]
29 | COc1ccc(-c2csc(NC(=O)c3ccc(OCC(=O)N4CCOCC4)c(OC)c3)n2)cc1 | inactive
30 | O=C(N/N=C/c1cc(Cl)ccc1O)C(=O)Nc1ccccc1OC(F)(F)C(F)F | active: 14.1 µM
31 | Cc1cccc(-n2c(SCC(=O)Nc3ncc(Cl)cc3Cl)nc3ccccc32)c1 | inconclusive: 3.98 µM [inhibitor, full curve]
32 | CC(=O)/C(C#N)=C1\NC(=O)C(Cc2ccc(C)c(C)c2)S1 (stereo not given) | inconclusive: 10 µM [inhibitor, full curve, poor fit]
33 | O=C(Cc1coc2ccc3ccccc3c12)Nc1nnc(C2CC2)s1 | inconclusive: 8.91 µM [inhibitor, full curve]
34 | CC1(c2cccc([N+](=O)[O-])c2)CC(C)(C)N(C(=O)c2ccccc2)c2ccccc21 (stereo not given) | inconclusive: 25.1 µM [inhibitor, partial curve, poor fit]
35 | Cc1ccc(NC2=C/C(=N/S(=O)(=O)c3cccs3)c3ccccc3C2=O)cc1 | active: 14.1 µM
36 | COc1ccc(Cc2nnc(N/N=C/c3ccc(O)cc3)[nH]c2=O)cc1OC | inconclusive: 8.91 µM [inhibitor, full curve]
37 | Cc1ccc(-n2cc(-c3ccccc3)c3c(NN4CCOCC4)ncnc32)cc1 | inactive
38 | CCOC(=O)NC1(Nc2ccc(C)cc2)Oc2ccccc2O1 | inactive
39 | CCc1ccc(S(=O)(=O)/N=C2/C=C(Sc3ncn[nH]3)C(=O)c3ccccc32)cc1 | active: 35.5 µM
40 | Cc1cc(SCC(=O)c2cc(C)n(C)c2C)nc2ccccc12 | inconclusive: 35.5 µM [inhibitor, single point]

From compound 3 as far as 4, copied from above:
Row | Compound | Potency
3 | Cc1c(C#N)c(N)nc2c3c(sc12)NC(=O)CC3c1ccc(F)cc1 (stereo not given) | inactive
4 | O=c1[nH]cnc2c1C(c1ccccc1[N+](=O)[O-])c1c(nc[nH]c1=O)O2 | inactive
